For this series, the system named is Caco-2 cells. The series is described as follows: Overall potential (OP = EP − TP). Format: cell-based, human.

Results on two compounds are retold here after patent US20130274352A1, “Oral Drug Devices and Drug Formulations” (The Regents of the University of California, priority 2009, published 2013).

Structures are written as SMILES.

In turn, `CCCCCCCCCCCCCCCC(=O)OC(CC(=O)O)C[N+](C)(C)C.[Cl-]` (centres unmarked) [PCC, Palmitoyl carnitine chloride] returned an OP (single CPE, Conc. 0.01%) of 0.57.
On to `CCCCCCCC/C=C\CCCCCCCC(=O)[O-].[Na+]` [SOA, Sodium oleate], for which, for the setting “14 discrete concentrations, FIG. 2D”, the “concentration of maximum in OP” value came out at 0.15%.
